{
  "source": "PubChem BioAssay AID540276",
  "about": "(National Center for Advancing Translational Sciences (NCATS), 2011)",
  "note": "Among all 300,000 compounds or so, about 5,400 (1.8%) were called active. Inconclusive results, whose numbers are uncertain, are shown with a selection of clear calls. Calls come from the whole dose curve; tested in HEK293 cells. Potencies beside an inconclusive call are fits to weak or partial responses and may not hold up. % is set by controls: 0 for no effect and ±100 for the full control effect; potency is the fitted concentration of half-maximal effect.",
  "data": [
    {"experiment": "qHTS for inhibitors of binding or entry into cells for Marburg Virus", "settings": "Marburg virus pseudotyped entry inhibition, cell reporter; activity change, negative = inhibition: at 37.8 µM (top of the series) unless noted", "values": [
      {"smiles": "CC(C)[C@H](NC(=O)c1ccc([N+](=O)[O-])cc1Cl)C(=O)N1CCN(C/C=C/c2ccccc2)CC1", "Potency": "inconclusive: 8.91 µM [inhibitor, partial curve, poor fit]"},
      {"smiles": "O=C(N/N=C\\c1cc2c(cc1[N+](=O)[O-])OCO2)c1cccs1", "Potency": "inconclusive: 14.1 µM [activator, partial curve, poor fit]"},
      {"smiles": "Cn1c(=O)oc2cc(S(=O)(=O)N3CCN(c4cccc(Cl)c4)CC3)ccc21", "Potency": "inconclusive: 0.0058 µM [inhibitor, full curve, poor fit]"},
      {"smiles": "Cc1ccc2nc(/C(C#N)=C\\c3ccc(N4CCOCC4)o3)[nH]c2c1", "Potency": "inconclusive: 35.5 µM [inhibitor, single point]"},
      {"smiles": "Nc1nnn(-c2ccccc2)c1-c1ccccc1", "activity change, negative = inhibition": "inactive: 0.011% [at 46.1 µM]"},
      {"smiles": "Cc1nc2c3cnn(-c4ccccc4)c3ncn2n1", "activity change, negative = inhibition": "inactive: 19.2%"},
      {"smiles": "CN(CC(O)CN1CCOCC1)S(=O)(=O)O", "note": "(stereo not drawn)", "Potency": "inactive"},
      {"smiles": "CCOC(=O)Cn1ncn(-c2ccc(OC(F)(F)F)cc2)c1=O", "Potency": "inconclusive: 3.16 µM [activator, single point]"},
      {"smiles": "Cn1cc(C(=O)N/N=C/c2ccc3c(c2)OCO3)c2ccccc21", "Potency": "active: 12.6 µM"},
      {"smiles": "CCSc1nc2sc3c(c2c(=O)n1-c1ccccc1C)CCN(C)C3", "Potency": "inconclusive: 10 µM [inhibitor, single point]"},
      {"smiles": "COc1ccccc1N1CCN(/N=C/C=C\\c2ccco2)CC1", "Potency": "inconclusive: 5.62 µM [activator, single point]"},
      {"smiles": "CCOC(=O)c1ccc(NC(=O)CC2Nc3ccccc3NC2=O)cc1", "note": "(stereo not drawn)", "Potency": "inconclusive: 6.31 µM [inhibitor, full curve, poor fit]"},
      {"smiles": "CCOC(=O)c1ccc(N2C(=O)c3[nH]nc(-c4ccc(OCC)cc4)c3C2c2cccs2)cc1", "note": "(stereo not drawn)", "Potency": "inconclusive: 12.6 µM [inhibitor, partial curve, poor fit]"},
      {"smiles": "CCOC(=O)c1c(-c2ccc(-c3ccccc3)cc2)csc1NC(=O)CNCCN(C)C", "Potency": "inconclusive: 10 µM [inhibitor, partial curve, poor fit]"},
      {"smiles": "CCCN(CCC)Cc1c(C(=O)N/N=C/c2ccsc2)nnn1-c1nonc1N", "activity change, negative = inhibition": "inactive: 1.99% [at 46.1 µM]"},
      {"smiles": "Cc1ccc(S(=O)(=O)NN2C(=O)c3ccccc3NC2C)cc1", "note": "(stereo not drawn)", "Potency": "inconclusive: 35.5 µM [activator, single point]"},
      {"smiles": "Nc1nc(C(=O)N2CCOCC2)nn1C(=O)c1ccc(Cl)cc1", "activity change, negative = inhibition": "inactive: 17.5%"},
      {"smiles": "Cc1ccc(-c2ccc(C(=O)NCCCNC(=O)c3cnccn3)o2)cc1Cl", "activity change, negative = inhibition": "inactive: 14.1% [at 46.1 µM]"},
      {"smiles": "C/C(=N/NC(=O)c1ccc2c(c1)OCO2)c1cccc([N+](=O)[O-])c1", "Potency": "inconclusive: 10 µM [activator, partial curve, poor fit]"},
      {"smiles": "COc1ccc(Cl)cc1NC(=O)C(C)N(C)Cc1cccc(Cl)c1Cl", "note": "(stereo not drawn)", "Potency": "inconclusive: 0.501 µM [inhibitor, full curve, poor fit]"},
      {"smiles": "Cc1ccc(S(=O)(=O)NNc2nc3ccccc3nc2C(F)(F)F)cc1", "Potency": "inconclusive: 35.5 µM [inhibitor, single point]"},
      {"smiles": "Cc1cc(NC(=S)NC(=O)c2ccco2)c2ccccc2n1", "Potency": "inconclusive: 0.562 µM [inhibitor, full curve, poor fit]"},
      {"smiles": "COC(=O)c1cc2oc3ccccc3c2n1Cc1nc(-c2cccc(C)c2)oc1C", "Potency": "inconclusive: 1.12 µM [inhibitor, full curve, poor fit]"},
      {"smiles": "CCn1c2ccccc2c2cc(NC(=S)N3CCOCC3)ccc21", "Potency": "inconclusive: 8.91 µM [inhibitor, partial curve, poor fit]"},
      {"smiles": "Cc1ccccc1-c1nc(CN2CCSCC2)c(C)o1", "Potency": "inconclusive: 10 µM [inhibitor, partial curve, poor fit]"},
      {"smiles": "Cc1ccc(-c2nc3ccsc3c(=O)[nH]2)cc1", "Potency": "inconclusive: 20.6 µM [inhibitor, single point]"},
      {"smiles": "O=C(Cc1ccc2cccnc2c1)c1ccc(O)cc1O", "activity change, negative = inhibition": "inactive: -1.17%"},
      {"smiles": "CC1CCCCC1NS(=O)(=O)c1ccc(S(=O)(=O)NCc2ccncc2)cc1", "note": "(stereo not drawn)", "Potency": "inconclusive: 0.92 µM [inhibitor, full curve]"},
      {"smiles": "CC1Sc2ccc(C(=O)Nc3ccc(S(=O)(=O)N(C)C)cc3)cc2NC1=O", "note": "(stereo not drawn)", "Potency": "inconclusive: 11.2 µM [inhibitor, partial curve, poor fit]"},
      {"smiles": "COc1ccnc(Oc2cccc(C(F)(F)F)c2)c1C(=O)N/C=N/OCc1ccccc1F", "Potency": "inconclusive: 14.1 µM [inhibitor, single point]"},
      {"smiles": "COc1ccc(N2CCN(C(=O)c3ccc(CNS(=O)(=O)c4cc(C)ccc4C)cc3)CC2)cc1", "Potency": "inconclusive: 15.8 µM [inhibitor, partial curve, poor fit]"},
      {"smiles": "O=C(Nc1ccc(Oc2cccc(C(F)(F)F)c2)nc1)c1ccco1", "Potency": "inconclusive: 35.5 µM [inhibitor, single point]"},
      {"smiles": "COc1cccc2cc(C(C)N(CCCN3CCOCC3)C(=S)Nc3cccc(C)c3)oc12", "note": "(stereo not drawn)", "Potency": "active: 10 µM"},
      {"smiles": "O=C(CSCc1ccc(Cl)cc1)Nc1ccccc1C(=O)N1CCOCC1", "activity change, negative = inhibition": "inactive: 26.9%"},
      {"smiles": "Cc1cc(N2CCOCC2)nc2ccc(NC(=O)CCC(=O)N3CCCC(C)C3)cc12", "note": "(stereo not drawn)", "activity change, negative = inhibition": "inactive: 21.8%"},
      {"smiles": "OC(c1ccccc1)C(NCCNCc1ccccc1)c1ccccc1", "note": "(stereo not drawn)", "Potency": "inconclusive: 14.1 µM [inhibitor, single point]"},
      {"smiles": "COc1ccc(CCC(C)NC2CCCCCCC2)cc1", "note": "(stereo not drawn)", "Potency": "inconclusive: 20 µM [inhibitor, single point]"},
      {"smiles": "Nc1ncc2c(n1)CCN(c1ccc([N+](=O)[O-])cc1)C2", "Potency": "inconclusive: 2.24 µM [inhibitor, partial curve, poor fit]"},
      {"smiles": "NC(=O)Cn1cnc(-c2ccccc2)c1", "Potency": "inconclusive: 3.98 µM [inhibitor, partial curve, poor fit]"},
      {"smiles": "COc1ccc([N+](=O)[O-])cc1NC(=O)Cn1ccc(C(F)(F)F)n1", "Potency": "inconclusive: 2.51 µM [inhibitor, single point]"},
      {"smiles": "Cc1ccc(/C=N/NC(=O)c2cc3ccccc3cc2O)o1", "Potency": "inconclusive: 6.31 µM [activator, single point]"},
      {"smiles": "O=C(c1ccco1)c1cn(Cc2ccccc2)c2ccccc12", "activity change, negative = inhibition": "inactive: 4.04%"},
      {"smiles": "COc1ccc(Cl)cc1NC(=O)NCc1ccccn1", "Potency": "inconclusive: 2.24 µM [activator, partial curve, poor fit]"}
    ]}
  ]
}
